# Results published in PubChem BioAssay AID504467 (National Center for Advancing Translational Sciences (NCATS), 2011).
# Out of some 330,000 compounds screened, about 7,700 (2.3%) were called active. The shares of active, inactive and inconclusive entries below differ from those in the screen. The call rests on the fitted dose curve; in most records, active means well fitted inhibition curve with a large enough effect; inconclusive means small, poorly fitted or top-dose-only effect, or effect the other way; inactive means flat fitted curve, though single readings scatter. Potencies of inconclusive entries are doubtful fits and often do not repeat.
# Test: qHTS screen for small molecules that inhibit ELG1-dependent DNA repair in human embryonic kidney (HEK293T) cells expressing luciferase-tagged ELG1; further: nearly all actives have a fitted effect of over 55% in size
# Settings: HEK293T ELG1-luciferase reporter, luminescence, 16 h, DNA damage induced by 5-fluorouridine; activity change, negative = inhibition: at 46.1 µM (top of the series)
# Outline: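 In this reporter screen, reduction of luminescence relative to DMSO vehicle indicated activity. Compounds and 5-fluorouridine were added together to 2,000 cells per well, incubated for 16 hr at 37 °C, then developed with ONE-Glo.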
# On the % scale 0 is the no-effect control and ±100 the full control effect; potency means the concentration at half of the fitted maximal effect.
Structure (SMILES),Potency,"activity change, negative = inhibition"
CC(=O)N1N=C(c2ccco2)CC1c1ccc(Br)cc1 (stereo not given),"inconclusive: 16.4 µM [activator, partial curve, poor fit]",
CCOC(=O)N1CCN(C(=O)CSCC(=O)Nc2nc(-c3ccccc3)cs2)CC1,"inconclusive: 29.1 µM [inhibitor, single point]",
COc1cc(C(=O)Nc2ccc(C(C)=O)cc2)c(Br)c(OC)c1OC,"inconclusive: 14.6 µM [activator, partial curve]",
COc1ccc(-c2noc(Cc3cccs3)n2)cc1,"inconclusive: 18.4 µM [activator, partial curve]",
O=C(NNC(=O)c1ccccc1O)c1cccc(Br)c1,"inconclusive: 29.1 µM [activator, single point]",
CCCCCCCCNCCS(=O)(=O)NN1CCOCC1,"inconclusive: 18.3 µM [activator, partial curve, poor fit]",
COCCCN1C(=O)c2ccc(C(=O)Nc3cccc(OC)c3)cc2C1=O,"inconclusive: 10.3 µM [activator, partial curve]",
COc1ccc(C(=O)NCCS(=O)(=O)NCc2ccco2)cc1,"inconclusive: 3.26 µM [activator, full curve, poor fit]",
CCc1nnc(NC(=O)c2ccc(NS(=O)(=O)c3ccccc3)cc2)s1,"inconclusive: 32.6 µM [inhibitor, partial curve, poor fit]",
CCN1C(=O)/C(=C/C=C2\C=CN(CC)c3ccccc32)SC1=S,"inconclusive: 2.31 µM [activator, partial curve]",
CN=C(C)c1c(O)c2ccccc2oc1=O,"inconclusive: 29.1 µM [activator, single point]",
O=C(NCCC1CCCCN1S(=O)(=O)c1ccccc1)C(=O)NCc1ccco1 (stereo not given),,inactive: -3.01%
CCOC(=O)C1=CN(Cc2cccc(F)c2)S(=O)(=O)N(C)C1c1ccc(C(F)(F)F)cc1 (stereo not given),,inactive: 4.13%
COc1ccc(/C(N)=N/OC(=O)c2cccs2)cc1OC,,inactive: -8.4%
Cc1cc(NC(=O)c2ccoc2C)ccc1Br,"inconclusive: 9.2 µM [activator, partial curve]",
O=C(c1sc2ccccc2c1Cl)N1CCN(c2ccc(F)cc2)CC1,,inactive: 9.5%
O=C(OCc1nnc(-c2ccccc2)o1)C12CC3CC(CC(Br)(C3)C1)C2,"inconclusive: 29.1 µM [activator, single point]",
O=C(Nc1cccc(-c2cn3ccccc3n2)c1)c1cc2ccccc2oc1=O,"inconclusive: 0.461 µM [activator, full curve]",
Cc1cc2c(ncn2C)c(NS(=O)(=O)c2ccc(Cl)cc2)c1C,,inactive: -19.1%
COc1cc2c(cc1OC)C(CC#N)=NC(C)(C)C2,"inconclusive: 20.6 µM [activator, partial curve, poor fit]",
Cc1cc(C)cc(N(CCC(=O)Nc2nnc(C)s2)S(=O)(=O)c2ccc(Cl)cc2)c1,"inconclusive: 32.6 µM [inhibitor, single point]",
Cc1nn2c(NCCN(C)C)c3c(nc2c1-c1ccccc1)CCCC3,"inconclusive: 2.06 µM [inhibitor, partial curve, poor fit]",
COc1nc(-c2ccccc2)ccc1-c1noc(-c2ccco2)n1,"inconclusive: 10.3 µM [activator, partial curve]",
NC(=O)c1ccc(C(F)(F)F)n(Cc2cccc(Cl)c2)c1=O,"inconclusive: 0.366 µM [activator, full curve, poor fit]",

Structure (SMILES),Potency,"activity change, negative = inhibition"
Cc1nnc2n1NC(c1ccc(Cl)cc1)C(C(=O)N1CCC(C)CC1)S2 (stereo not given),"inconclusive: 18.4 µM [activator, single point]",
CC(Sc1nc(N)c2c3c(sc2n1)CSC(C)(C)C3)C(=O)Nc1ccccc1 (stereo not given),"inconclusive: 29.1 µM [inhibitor, single point]",
CCC(C)(O)c1[nH]c2ccc(C(F)(F)F)cc2c1C (stereo not given),,inactive: 4.69%
COC(=O)c1ccc(Oc2ccc(C(C)(C)C)cc2)c([N+](=O)[O-])c1,,inactive: 0.43%
COc1ccc(/C=C2\SC(=S)N(CC(=O)N3CCN(C)CC3)C2=O)cc1,,inactive: 12%
CC(=O)c1c(C)oc2ccc(N(C(C)=O)S(=O)(=O)c3ccc(F)cc3C)cc12,"inconclusive: 6.51 µM [inhibitor, full curve, poor fit]",
COC(=O)c1coc(-c2ccc(OC)cc2)c1C(=O)OC,"inconclusive: 14.6 µM [activator, partial curve]",
CC1C/C(=C/c2cccn2C)C(=O)/C(=C/c2cccn2C)C1 (stereo not given),"inconclusive: 29.1 µM [inhibitor, single point]",
CN(C)/C=C/C(=O)c1ccc(-c2ccc(Cl)cc2Cl)o1,"inconclusive: 20.6 µM [activator, partial curve]",
CC(=O)OCC(=O)Nc1ccc([N+](=O)[O-])cc1Cl,,inactive: 16.6%
O=C(Nc1cccc(-c2nnc(-c3ccccc3)o2)c1)c1ccco1,,inactive: -20.9%
COc1ccc(CCNC(=O)CNC(=O)c2nn(-c3ccc(OC)c(OC)c3)c(=O)c3ccccc23)cc1OC,"inconclusive: 13 µM [inhibitor, partial curve, poor fit]",
COc1ccc(C(=O)NC2CCN(Cc3c(F)cccc3Cl)CC2)cc1OC,"inconclusive: 20.6 µM [inhibitor, partial curve]",
O=C(Nc1ccc(Cl)cc1C(F)(F)F)c1ccc(Cl)cc1,"inconclusive: 20.6 µM [activator, single point]",
CCCc1c(C(=O)NNc2cccc(Cl)c2)cnn1-c1ccccc1,"inconclusive: 20.6 µM [inhibitor, partial curve]",
COc1ccc(S(=O)(=O)N2CCOCC2)cc1NC(=O)CCCOc1ccc(Cl)cc1C,"inconclusive: 14.6 µM [inhibitor, partial curve, poor fit]",
Cc1ccc(-c2nc(CS(=O)CC(=O)N3CCN(c4ncccn4)CC3)c(C)o2)cc1 (stereo not given),"inconclusive: 29.1 µM [inhibitor, partial curve, poor fit]",
CCN(CC)C1CCCCC1NS(=O)(=O)c1ccc(Cl)cc1 (stereo not given),,inactive: 7.52%
CCOC(=O)c1sc(NC(=O)CCN2C(=O)C3CCCCC3C2=O)cc1C (stereo not given),,inactive: 16.5%
COc1ccc(S(=O)(=O)N(CC(=O)NCc2ccco2)c2ccccc2OC)cc1,,inactive: 0.0365%
O=C(NCCc1c[nH]c2ccccc12)C1CCN(S(=O)(=O)c2ccccc2F)CC1,"inconclusive: 29.1 µM [inhibitor, single point]",
CCN(CC)C(=O)CSc1nc2ccc(NC(=O)CSc3nnc(COc4ccccc4C)n3C)cc2s1,active: 8.2 µM,
C/C(=N/N1CCN(c2ccccn2)CC1)c1ccc([N+](=O)[O-])cc1,"inconclusive: 16.4 µM [inhibitor, single point]",
Cc1nc(N2CCOCC2)c2c(C)c(C(=O)Nc3ccccc3C(F)(F)F)sc2n1,active: 16.4 µM,

Structure (SMILES),Potency,"activity change, negative = inhibition"
CCc1ccc(S(=O)(=O)/N=C2\C=C(Nc3cccc(C(=O)O)c3)C(=O)c3ccccc32)cc1,"inconclusive: 29.1 µM [inhibitor, single point]",
COc1ccc(-n2nc([N+](=O)[O-])c(=NCCc3ccccc3)n2O)cc1,"inconclusive: 18.4 µM [activator, partial curve]",
Cc1onc(-c2ccccc2Cl)c1C(=O)NCc1ccccc1F,,inactive: -4.01%
Cc1ccc(C[n+]2ccccc2)cc1,"inconclusive: 22.4 µM [activator, single point]",
Cc1ccc(NC(=S)NC(=O)c2ccc(F)cc2)cc1S(=O)(=O)Nc1ccccc1Cl,"inconclusive: 25.9 µM [inhibitor, single point]",
CC(C)(C)NC(=O)C(c1ccncc1)N(Cc1ccc(F)cc1)C(=O)c1ccc(-c2ccccc2)[nH]1 (stereo not given),"inconclusive: 23.1 µM [inhibitor, single point]",
CC(=O)Nc1ccc(NC(=O)COC(=O)C2CCC(C(C)(C)C)CC2)cc1 (stereo not given),"inconclusive: 18.3 µM [inhibitor, single point]",
Cc1nn(C)c(C)c1/C=C/C(=O)O,,inactive: -1.44%
COc1cccc(-c2ncc3ccccc3c2COC(=O)N2CCCCC2)c1,"inconclusive: 16.4 µM [inhibitor, single point]",
Cc1c(C(=O)Nc2nccs2)oc2c(Cl)cccc12,,inactive: 11.3%
COc1ccc(N/C(C)=C2/C(=O)C(=O)N(CCO)C2c2ccc([N+](=O)[O-])cc2)cc1 (stereo not given),,inactive: -1.59%
CCn1ncc(C(=O)Nc2ccc(S(=O)(=O)N3CCCC3)cc2)c1C,"inconclusive: 13 µM [inhibitor, partial curve, poor fit]",
CCOc1cc(NC(=S)NCC2CCCO2)c(OCC)cc1NC(=O)c1ccccc1C (stereo not given),,inactive: -12.3%
CCn1c2ccccc2c2cc(NC(=O)CN3CCCC3)ccc21,,inactive: 12.6%
COc1ccc(-c2[nH]ncc2CN(C)C(C)c2cccs2)c(F)c1 (stereo not given),,inactive: -5.28%
O=C1c2cccc3cccc(c23)C(=O)N1OS(=O)(=O)c1ccc(Cl)cc1,,inactive: 12.2%
N#Cc1ccc(OCC(=O)NNC(=S)NC(=O)C2CC2)cc1,,inactive: 4.59%
CC(C)(C)C(=O)/C=C(\N)c1ccncc1,"inconclusive: 18.4 µM [inhibitor, partial curve]",
O=C(NNC(=O)c1ccc(Cl)cc1Cl)c1ccncc1,"inconclusive: 18.4 µM [activator, partial curve, poor fit]",
CN(C)Cc1nnnn1-c1cccc(-n2nnnc2CN(C)C)c1,,inactive: -0.57%
O=C(c1ccc(-c2cc(Cl)ccc2Cl)o1)N1CCOCC1,"inconclusive: 16.4 µM [activator, single point]",
Cc1ccc(C)c(N2CCN(C(=O)CCCn3c(=O)c4cccn4c4cccnc43)CC2)c1,active: 18.3 µM,

# Looked up above.
# `CC(=O)Nc1ccc(NC(=O)COC(=O)C2CCC(C(C)(C)C)CC2)cc1` (stereo not given) – Potency: inconclusive: 18.3 µM [inhibitor, single point]
# `Cc1ccc(C)c(N2CCN(C(=O)CCCn3c(=O)c4cccn4c4cccnc43)CC2)c1` – Potency: active: 18.3 µM
# `COc1ccc(-c2[nH]ncc2CN(C)C(C)c2cccs2)c(F)c1` (stereo not given) – activity change, negative = inhibition: inactive: -5.28%
